Results reported in publication PMC7819943, “Rice protein-binding microarrays: a tool to detect cis-acting elements near promoter regions in rice”.
The list shows a part of the results.

molecular target: T1, OsSMF1 (Oryza sativa, UniProt Q6ZLB0 1-436); assay: protein-binding microarray (RPBM); PBS, 2% BSA, 51.3 ng/ul salmon testes DNA, 50 uM zinc acetate, 200 nM TF, 25 C, 1 h; high values mean tight binding; settings: protein: recombinant; tags: N-terminal polyhistidine and DsRed monomer fusion (pET32a); chain copies: 2; label: CyDye5-dUTP incorporated in the synthesized complementary strand; 3' TTTTT single-stranded linker to array surface; dsDNA, one strand shown
T1 sequence: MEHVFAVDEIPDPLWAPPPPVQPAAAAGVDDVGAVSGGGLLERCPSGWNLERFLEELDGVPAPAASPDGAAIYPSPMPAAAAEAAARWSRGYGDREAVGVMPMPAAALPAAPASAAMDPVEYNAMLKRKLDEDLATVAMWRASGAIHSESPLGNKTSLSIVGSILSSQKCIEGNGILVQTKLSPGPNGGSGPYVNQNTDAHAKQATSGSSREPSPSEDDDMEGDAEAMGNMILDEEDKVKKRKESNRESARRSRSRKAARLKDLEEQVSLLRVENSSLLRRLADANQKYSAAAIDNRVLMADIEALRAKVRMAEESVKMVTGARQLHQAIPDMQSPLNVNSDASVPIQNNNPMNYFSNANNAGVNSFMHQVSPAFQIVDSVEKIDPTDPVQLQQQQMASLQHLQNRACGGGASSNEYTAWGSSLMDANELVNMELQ
Outline: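 Using Ni–NTA, transcription factors fused N-terminally to polyhistidine and DsRed were purified after expression in E. coli BL21-CodonPlus. These were incubated at 200 nM with a blocked, double-stranded custom Agilent array for 1 h at 25 °C in a buffer containing 50 µM zinc acetate, and the array was washed. The binding signal is per-feature fluorescence intensity (arbitrary units) on an Axon 4000B scanner.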

Sequence | binding signal
GACCGAGAGACAGAGAGCGCGAGCACGGAATGCTCCGCAGCGGAGTCACCTAGTGCAG | 32800 fluorescence intensity (a.u.)
CGGACAGGCGCCGCCTCCTGGATCTGCTCCTGGTGGGTATCGGAGTCACCTAGTGCAG | 3380 fluorescence intensity (a.u.)
GTACTGTCGCCTGCGCGTCACCGCCGCCTGCTCACCGTTCCGGAGTCACCTAGTGCAG | 3760 fluorescence intensity (a.u.)
AATTTTAATACAAATTCTCATATGAATGTTGTTGTGTTAGCGGAGTCACCTAGTGCAG | 3290 fluorescence intensity (a.u.)
GGCCTTTTATGCAAAATTACACCTCGATGACATGTGGGGTCGGAGTCACCTAGTGCAG | 4300 fluorescence intensity (a.u.)
TTTTGGATTCCCTTTTCATCCATGGATGCATGTGTTCCTTCGGAGTCACCTAGTGCAG | 3220 fluorescence intensity (a.u.)
ATTGCCAACACACATGGCCATCAGATCACCTTGAACCTACCGGAGTCACCTAGTGCAG | 4640 fluorescence intensity (a.u.)
ATCGCCGACGTGGCAAGCGAAGCGAGGGATCCCCACCCCTCGGAGTCACCTAGTGCAG | 17700 fluorescence intensity (a.u.)
AAGAGATAAAAGGGGAAGAAGTAAAAGTGACATTTCACTGCGGAGTCACCTAGTGCAG | 3820 fluorescence intensity (a.u.)
AAACTATGACCCATTTGTCATACTCGTTGACACTGTACCCCGGAGTCACCTAGTGCAG | 4010 fluorescence intensity (a.u.)
ACCCCGCTTCCAGTTCTGACTCTGTTGCCTCTCTGCTTTCCGGAGTCACCTAGTGCAG | 4400 fluorescence intensity (a.u.)
GCCGACGCGAGCTTTCTTGCGTGTTGTAGCTGGAGTGTTCCGGAGTCACCTAGTGCAG | 3360 fluorescence intensity (a.u.)
GGCTTTCATACAGGCCCATGAACGTGTATGGGCCTAGGCCCGGAGTCACCTAGTGCAG | 23100 fluorescence intensity (a.u.)
ATTCGGTGTGGTAGTGGGTATACTCGTCCTCCTCTTCGTGCGGAGTCACCTAGTGCAG | 4770 fluorescence intensity (a.u.)
TGGCAACAAACTGACACTGATTCAGAGTATTGTGATCCTTCGGAGTCACCTAGTGCAG | 3610 fluorescence intensity (a.u.)
CTAGTCGCTTCCGATGATTAAGCTGATGGTTCCTTCCGACCGGAGTCACCTAGTGCAG | 3170 fluorescence intensity (a.u.)
CCGTGTTTGAGGTTCGTCATCCGTATTTGAAGTCGGTTTTCGGAGTCACCTAGTGCAG | 4470 fluorescence intensity (a.u.)
GCCGCCGCAAGCTGCCCCTCCTCACCCGGCCGCTCCGCCCCGGAGTCACCTAGTGCAG | 21200 fluorescence intensity (a.u.)
CCGTCGCCCGAGAGCGAACGGCCGGCTGCCACGTCATTTTCGGAGTCACCTAGTGCAG | 21100 fluorescence intensity (a.u.)
GCAGCTGAACTTTGAGATGTGTGTGACACACATGTGTTTGCGGAGTCACCTAGTGCAG | 5060 fluorescence intensity (a.u.)
CGTCACCTATAATTTTCGCTGGCGGTTATACGTGAAAACCCGGAGTCACCTAGTGCAG | 3310 fluorescence intensity (a.u.)

Sequence | binding signal
GAACAAAAGAGCTCTCACTACTGACATCATCATCAAATTACGGAGTCACCTAGTGCAG | 5500 fluorescence intensity (a.u.)
ATCCAGGAGTCCAGCACGAACTGCATGCGTCAACATGCAACGGAGTCACCTAGTGCAG | 4560 fluorescence intensity (a.u.)
TGGGAGAGGCTGAGGAAGTGGCAAACCGGCAGCTGTGACGCGGAGTCACCTAGTGCAG | 3430 fluorescence intensity (a.u.)
CCGGGTCAACTTGCCACATCAGTGAATCCAGACATCTACACGGAGTCACCTAGTGCAG | 5980 fluorescence intensity (a.u.)
GCCAACTGCCATGTCAGCAACTAACGCGCTCGCTTCCTTCCGGAGTCACCTAGTGCAG | 13400 fluorescence intensity (a.u.)
GACCTCATCAATGCTGCTCGTAATAGTACTACTACTCCTACGGAGTCACCTAGTGCAG | 4310 fluorescence intensity (a.u.)
GCCAGTAAACCAATGGAGGACTGGCCTGTGGTGTACAACTCGGAGTCACCTAGTGCAG | 3140 fluorescence intensity (a.u.)
TGATTAAAGTATTCTTATTTCTCTTTTGAGCAATATCTAACGGAGTCACCTAGTGCAG | 21900 fluorescence intensity (a.u.)
CTATAGTGTGTGACGACTTTCTGGACGATGGCTTGACGCACGGAGTCACCTAGTGCAG | 3160 fluorescence intensity (a.u.)
TATCGAGTCCCTGTAAGTTGTAACACGTGTTTGTTTCTCTCGGAGTCACCTAGTGCAG | 4470 fluorescence intensity (a.u.)
ACTCTATGCTGAGTGACCTGGCATTTATTAAGACAATTGCCGGAGTCACCTAGTGCAG | 7720 fluorescence intensity (a.u.)
AATCCTCCTCCCTCATCAGTCGTCACGCCCACCACCCCACCGGAGTCACCTAGTGCAG | 4860 fluorescence intensity (a.u.)
CGCTCGCCCGCATCCGCATGACGCGCACGGGAAGCGGCCGCGGAGTCACCTAGTGCAG | 3970 fluorescence intensity (a.u.)
CCGGTGCGCCCATCTCGTACGGTGCGACGTGCGTGCGGCCCGGAGTCACCTAGTGCAG | 4120 fluorescence intensity (a.u.)
TCGTGTGGTCGGAGGGGACGCGGGGCAGGAGCGGCGCGGGCGGAGTCACCTAGTGCAG | 3160 fluorescence intensity (a.u.)
CTTTACATTTTGAATAATGACGCAACCTTAAAACACTACTCGGAGTCACCTAGTGCAG | 6280 fluorescence intensity (a.u.)
CCGTACGTATCATATCTGATATTTAGGTATCATACTGACGCGGAGTCACCTAGTGCAG | 3680 fluorescence intensity (a.u.)
TCACGTGACTGGATCCCTCTTCTCTCTCGCGCGAGCGTCGCGGAGTCACCTAGTGCAG | 4530 fluorescence intensity (a.u.)
GAGTCTAGGAAATTGTCATGTATGAAAATTTTAAAAGTGGCGGAGTCACCTAGTGCAG | 27900 fluorescence intensity (a.u.)
GCCTTGGCACGGTGGGTTGGCCTGGCACAGCACGAAAGTCCGGAGTCACCTAGTGCAG | 3230 fluorescence intensity (a.u.)
AGGCCGGGCCGTAGCGAAATCGAGAGCGTTTTCCATTCGTCGGAGTCACCTAGTGCAG | 36500 fluorescence intensity (a.u.)

A different layout for part of the listing above.
Sequence,binding signal
TGATTAAAGTATTCTTATTTCTCTTTTGAGCAATATCTAACGGAGTCACCTAGTGCAG,21900 fluorescence intensity (a.u.)
CCGTACGTATCATATCTGATATTTAGGTATCATACTGACGCGGAGTCACCTAGTGCAG,3680 fluorescence intensity (a.u.)
